Reference: ChEMBL document CHEMBL5126625, “Discovery of AZD4831, a Mechanism-Based Irreversible Inhibitor of Myeloperoxidase, As a Potential Treatment for Heart Failure with Preserved Ejection Fraction” (J Med Chem, 2022)
Converted amounts (≈) assume the structure as drawn.

Tests used:
[1] = Lipophilicity, log D of the compound; settings: octanol/water
[2] = rat, in vivo, po, 24 h
physchem = settings: buffer, pH 7.4

C[C@@H](N)c1cc(Cl)ccc1Cn1c(=S)[nH]c(=O)c2[nH]cnc21
logD [1]: 0.7
CL [2]: 1.2 L/h/kg
solubility thermodynamic at 18 h (physchem): 880 µM (≈ 296 µg/mL)
